Data as given in PubChem BioAssay AID652243 (Drosophila RNAi Screening Center, 2013)

Purpose: 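Knock-downs that decrease or increase androgen receptor reporter signal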 (primary screen)
System: Drosophila S2R+ cells
Knock-down reagent: long dsRNA against Drosophila genes
Timing: 72 h (48 h, then 24 h hormone)
Treatment: synthetic androgen R1881 at 10 nM for 24 h
Detection: 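Per-well raw luminescence of the androgen-driven firefly reporter and of the Renilla control, two replicates each, without normalisation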
Reading the numbers: firefly reporter light: higher = more light from androgen-responsive reporter; Renilla control light: higher = more constitutive control signal (cell number, transfection)
Hit rule: 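Across duplicate plates, a knock-down whose log firefly/Renilla ratio shifted a set fold down or up from the GFP/LacZ control mean was a hit; the downward cut appears as both 1.5 and 3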
Calls: active = hit: reporter lowered or raised; inactive = no hit
The deposit covers about 24,000 reagents; this is an unselected part of those that have a named target and a result. In the full data, 246 (1%) are marked active. 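Plates not normalised; calls are printed but the firefly/Renilla ratio behind them is not deposited; fold cut for lowering reported inconsistently.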 Raw values are not corrected between plates. Not stated in the record: the amount of reagent.

The opening 2 entries, to show the layout:
SCOT [DRSC08186] → firefly reporter light, replicate 1 = 9.75e5; firefly reporter light, replicate 2 = 1.09e6; Renilla control light, replicate 1 = 1.84e6; Renilla control light, replicate 2 = 1.43e6; Call = inactive
SCOT [DRSC26521] → firefly reporter light, replicate 1 = 3.54e5; firefly reporter light, replicate 2 = 2.98e5; Renilla control light, replicate 1 = 4.67e5; Renilla control light, replicate 2 = 6.34e5; Call = inactive

The listing, from the first entry:
SCOT [DRSC08186] → firefly reporter light, replicate 1 = 9.75e5; firefly reporter light, replicate 2 = 1.09e6; Renilla control light, replicate 1 = 1.84e6; Renilla control light, replicate 2 = 1.43e6; Call = inactive
SCOT [DRSC26521] → firefly reporter light, replicate 1 = 3.54e5; firefly reporter light, replicate 2 = 2.98e5; Renilla control light, replicate 1 = 4.67e5; Renilla control light, replicate 2 = 6.34e5; Call = inactive
Pask [DRSC04337] → firefly reporter light, replicate 1 = 1.26e6; firefly reporter light, replicate 2 = 4.95e5; Renilla control light, replicate 1 = 1.71e6; Renilla control light, replicate 2 = 1.17e6; Call = inactive
Pask [DRSC28829] → firefly reporter light, replicate 1 = 5.92e5; firefly reporter light, replicate 2 = 3.62e5; Renilla control light, replicate 1 = 9.87e5; Renilla control light, replicate 2 = 1.22e6; Call = active
Pask [DRSC36878] → Call = inactive
Pask [DRSC36879] → Call = inactive
CG10265 [DRSC05986] → firefly reporter light, replicate 1 = 1.18e6; firefly reporter light, replicate 2 = 9.44e5; Renilla control light, replicate 1 = 2.59e6; Renilla control light, replicate 2 = 2.48e6; Call = inactive
CG10265 [DRSC21680] → firefly reporter light, replicate 1 = 7.12e5; firefly reporter light, replicate 2 = 5.70e5; Renilla control light, replicate 1 = 3.00e6; Renilla control light, replicate 2 = 2.05e6; Call = inactive
CG31808 [DRSC22962] → firefly reporter light, replicate 1 = 3.80e5; firefly reporter light, replicate 2 = 6.94e5; Renilla control light, replicate 1 = 1.24e6; Renilla control light, replicate 2 = 2.37e6; Call = inactive
CG31808 [DRSC29167] → firefly reporter light, replicate 1 = 5.91e5; firefly reporter light, replicate 2 = 4.67e5; Renilla control light, replicate 1 = 1.52e6; Renilla control light, replicate 2 = 1.47e6; Call = inactive
Ubc87F [DRSC16513] → firefly reporter light, replicate 1 = 1.62e5; firefly reporter light, replicate 2 = 1.62e5; Renilla control light, replicate 1 = 2.80e6; Renilla control light, replicate 2 = 2.71e6; Call = inactive
Ubc87F [DRSC29083] → firefly reporter light, replicate 1 = 4.18e5; firefly reporter light, replicate 2 = 4.66e5; Renilla control light, replicate 1 = 1.37e6; Renilla control light, replicate 2 = 1.42e6; Call = inactive
CG34434 [DRSC18134] → firefly reporter light, replicate 1 = 4.90e5; firefly reporter light, replicate 2 = 5.71e5; Renilla control light, replicate 1 = 2.42e6; Renilla control light, replicate 2 = 1.76e6; Call = inactive
CG34434 [DRSC26923] → firefly reporter light, replicate 1 = 6.79e5; firefly reporter light, replicate 2 = 6.75e5; Renilla control light, replicate 1 = 8.40e5; Renilla control light, replicate 2 = 8.48e5; Call = inactive
CG34434 [DRSC28486] → firefly reporter light, replicate 1 = 3.72e5; firefly reporter light, replicate 2 = 4.10e5; Renilla control light, replicate 1 = 8.43e5; Renilla control light, replicate 2 = 1.16e6; Call = inactive
NiPp1 [DRSC07307] → firefly reporter light, replicate 1 = 5.35e5; firefly reporter light, replicate 2 = 4.79e5; Renilla control light, replicate 1 = 5.24e5; Renilla control light, replicate 2 = 3.90e5; Call = inactive
NiPp1 [DRSC36777] → Call = inactive
Myd88 [DRSC06815] → firefly reporter light, replicate 1 = 1.50e6; firefly reporter light, replicate 2 = 1.43e6; Renilla control light, replicate 1 = 1.11e6; Renilla control light, replicate 2 = 9.61e5; Call = inactive
Myd88 [DRSC28830] → firefly reporter light, replicate 1 = 6.75e5; firefly reporter light, replicate 2 = 1.04e6; Renilla control light, replicate 1 = 6.13e5; Renilla control light, replicate 2 = 6.16e5; Call = inactive
Myd88 [DRSC39025] → firefly reporter light, replicate 1 = 7.02e5; firefly reporter light, replicate 2 = 8.37e5; Renilla control light, replicate 1 = 1.94e6; Renilla control light, replicate 2 = 1.79e6; Call = inactive
CG18269 [DRSC02660] → firefly reporter light, replicate 1 = 1.04e5; firefly reporter light, replicate 2 = 1.36e5; Renilla control light, replicate 1 = 1.12e6; Renilla control light, replicate 2 = 1.06e6; Call = inactive
HnRNP-K [DRSC07585] → firefly reporter light, replicate 1 = 4.87e5; firefly reporter light, replicate 2 = 3.57e5; Renilla control light, replicate 1 = 4.06e6; Renilla control light, replicate 2 = 3.15e6; Call = inactive
HnRNP-K [DRSC22734] → firefly reporter light, replicate 1 = 4.54e5; firefly reporter light, replicate 2 = 5.33e5; Renilla control light, replicate 1 = 1.93e5; Renilla control light, replicate 2 = 2.77e5; Call = inactive
HnRNP-K [DRSC24070] → firefly reporter light, replicate 1 = 8.08e5; firefly reporter light, replicate 2 = 6.77e5; Renilla control light, replicate 1 = 1.10e6; Renilla control light, replicate 2 = 1.11e6; Call = inactive
Coq2 [DRSC16516] → firefly reporter light, replicate 1 = 86986; firefly reporter light, replicate 2 = 91771; Renilla control light, replicate 1 = 1.86e6; Renilla control light, replicate 2 = 1.48e6; Call = inactive
Coq2 [DRSC21366] → firefly reporter light, replicate 1 = 8.90e5; firefly reporter light, replicate 2 = 6.69e5; Renilla control light, replicate 1 = 3.07e6; Renilla control light, replicate 2 = 2.72e6; Call = inactive
Coq2 [DRSC29659] → firefly reporter light, replicate 1 = 4.34e5; firefly reporter light, replicate 2 = 6.79e5; Renilla control light, replicate 1 = 6.19e5; Renilla control light, replicate 2 = 6.19e5; Call = inactive
